We go through 26 molecules from the supplement of paper PMC12024529.

One assay has as its system HEK293 WT BDD-FVIII-Gluc. Nature of the assay: secreted FVIII-Gluc luciferase Z-score vs DMSO control; higher = more FVIII-Gluc secretion. The settings on record: 5 µM; 24 h.
The test system of assay [1] is HEK293 p.N1941S BDD-FVIII-Gluc. The description is as above. The note with it: 5 µM; 24 h.

Where a name gives a salt, the structure may show the parent alone. This is one part of the list. Part of the spread comes from offsets between plates or batches.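 The cells are HEK293 lines stably expressing B-domain-deleted factor VIII fused to Gaussia luciferase, either wild type or a misfolding-prone missense mutant. Each score is mean luminescence from triplicate wells minus the DMSO mean, divided by the DMSO standard deviation; a score of 2 or more counts as a hit, and low scores may reflect lower secretion or poorer cell viability.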

Take `O=C(CCCN1CCN(c2ccccn2)CC1)c1ccc(F)cc1` [Azaperone]: the figures for the “secreted FVIII-Gluc luciferase Z-score” value (in the assay with HEK293 WT BDD-FVIII-Gluc; in assay [1]) were inactive: -0.201 and inactive: -0.0655, respectively.
For `c1ccc(-c2ccc(C(c3ccccc3)n3ccnc3)cc2)cc1` (configuration not stated) [Bifonazole], in that order: inactive: -1.61 and inactive: -2.6.
Turning to `CC(C)NCC(O)c1ccc(NS(C)(=O)=O)cc1` (configuration not stated) [Sotalol (Betapace)], the “secreted FVIII-Gluc luciferase Z-score” value in the assay on HEK293 WT BDD-FVIII-Gluc was inactive: -0.351; in assay [1] it was inactive: -0.812.
With `NC(=O)N/N=C/c1ccc([N+](=O)[O-])o1` [Nitrofurazone (Nitrofural)], the “secreted FVIII-Gluc luciferase Z-score” value in the assay with HEK293 WT BDD-FVIII-Gluc is inactive: -2.32; in assay [1] it was inactive: 0.766.
With `CCCC(CCC)C(=O)O[C@H]1C[C@H]2CC[C@@H](C1)[N+]2(C)C` [Anisotropine Methylbromide], the “secreted FVIII-Gluc luciferase Z-score” value with HEK293 WT BDD-FVIII-Gluc is inactive: 0.25; in assay [1], inactive: 0.823.
As for `O=C(O)c1cc(/N=N/c2ccc(S(=O)(=O)Nc3ccccn3)cc2)ccc1O` [Sulfasalazine (Azulfidine)], the “secreted FVIII-Gluc luciferase Z-score” value in the assay on HEK293 WT BDD-FVIII-Gluc was inactive: -1.7; in assay [1] it was inactive: -0.324.
`O=C(O)/C=C/c1ccc(Cn2ccnc2)cc1` [Ozagrel]: the “secreted FVIII-Gluc luciferase Z-score” value in the assay on HEK293 WT BDD-FVIII-Gluc is inactive: 0.245; in assay [1], inactive: -1.32.
For `COc1ccc(C[C@@H]2c3cc(OC)c(OC)cc3CC[N@+]2(C)CCC(=O)OCCCCCOC(=O)CC[N@@+]2(C)CCc3cc(OC)c(OC)cc3[C@H]2Cc2ccc(OC)c(OC)c2)cc1OC` [Cisatracurium besylate (Nimbex)], in that order: inactive: -0.267 and inactive: -0.279.
For `CCN(CCCc1ccccc1)CCCc1ccccc1` [Alverine Citrate], in that order: inactive: -1.13 and inactive: -0.108.
For the molecule `COc1ccc(O)cc1` [Mequinol], the results for the “secreted FVIII-Gluc luciferase Z-score” value (in the assay with HEK293 WT BDD-FVIII-Gluc; in assay [1]) were inactive: 0.246 and inactive: -0.827, respectively.
The matching figures for `CC(C)(C(=O)O)c1ccc(C(O)CCCN2CCC(C(O)(c3ccccc3)c3ccccc3)CC2)cc1` (configuration not stated) [Fexofenadine HCl]: inactive: -0.927 and inactive: -0.428.
The matching figures for `CN1CCC[C@@H]1CCO[C@](C)(c1ccccc1)c1ccc(Cl)cc1` [Clemastine Fumarate]: inactive: -2.76 and inactive: -3.21.
As to `O=C(O)Cc1ccccc1Nc1c(Cl)cccc1Cl` [Diclofenac Diethylamine], the figures for the “secreted FVIII-Gluc luciferase Z-score” value (in the assay on HEK293 WT BDD-FVIII-Gluc; in assay [1]) were active: 2.39 and inactive: 0.112, respectively.
For `C[C@@H]1C/C=C/C=C/C=C/C=C/[C@H](O[C@@H]2O[C@H](C)[C@@H](O)[C@H](N)[C@@H]2O)C[C@@H]2O[C@](O)(C[C@@H](O)C[C@H]3O[C@@H]3/C=C/C(=O)O1)C[C@H](O)[C@H]2C(=O)O` [Natamycin (Pimaricin)], in that order: inactive: -2.51 and inactive: 0.261.
Take `N=C(N)N` [Guanidine HCl]: the entries for the “secreted FVIII-Gluc luciferase Z-score” value (in the assay on HEK293 WT BDD-FVIII-Gluc; in assay [1]) were inactive: -0.194 and inactive: 0.655, respectively.
On to `CC(C)(C)CC(C)(C)c1ccc(OCCOCC[N+](C)(C)Cc2ccccc2)cc1` [Benzethonium chloride], for which the “secreted FVIII-Gluc luciferase Z-score” value is inactive: -2.48 in the assay with HEK293 WT BDD-FVIII-Gluc and inactive: -0.901 in assay [1].
Turning to `COc1ccc2cc([C@H](C)C(=O)O)ccc2c1` [Naproxen (Aleve)], the “secreted FVIII-Gluc luciferase Z-score” value with HEK293 WT BDD-FVIII-Gluc was inactive: 0.921; in assay [1], inactive: 0.834.
For `O=c1ccc2ccccc2o1` [Coumarin], in that order: inactive: 0.776 and inactive: 0.796.
Consider `CCOC(=O)[C@H](CCc1ccccc1)N[C@H]1CCc2ccccc2N(CC(=O)O)C1=O` [Benazepril hydrochloride], for which the “secreted FVIII-Gluc luciferase Z-score” value in the assay with HEK293 WT BDD-FVIII-Gluc was inactive: 0.592; in assay [1], inactive: 0.175.
With `Cc1onc(-c2c(Cl)cccc2Cl)c1C(=O)N[C@@H]1C(=O)N2[C@@H]1SC(C)(C)[C@@H]2C(=O)O` [Dicloxacillin Sodium], the “secreted FVIII-Gluc luciferase Z-score” value in the assay on HEK293 WT BDD-FVIII-Gluc is inactive: 0.729; in assay [1], inactive: 0.113.
For `Clc1ccc(CCC(Cn2ccnc2)Sc2c(Cl)cccc2Cl)cc1` (configuration not stated) [Butoconazole nitrate], in that order: inactive: -0.645 and inactive: -1.52.
With `COc1ccc(-n2nc(C(N)=O)c3c2C(=O)N(c2ccc(N4CCCCC4=O)cc2)CC3)cc1` [Apixaban], the “secreted FVIII-Gluc luciferase Z-score” value was inactive: -0.447 with HEK293 WT BDD-FVIII-Gluc and inactive: -0.00848 in assay [1].
For `CC(C)C(=O)Oc1ccc(CO)cc1[C@H](CCN(C(C)C)C(C)C)c1ccccc1` [Fesoterodine fumarate (Toviaz)], in that order: inactive: -0.041 and inactive: -1.83.
As for `Nc1nnc(-c2cccc(Cl)c2Cl)c(N)n1` [Lamotrigine], the results for the “secreted FVIII-Gluc luciferase Z-score” value (in the assay with HEK293 WT BDD-FVIII-Gluc; in assay [1]) were inactive: -0.189 and inactive: 0.313, respectively.
On to `CCC(=O)NCC[C@@H]1CCc2ccc3c(c21)CCO3` [Ramelteon (TAK-375)], for which the “secreted FVIII-Gluc luciferase Z-score” value is active: 2.22 in the assay on HEK293 WT BDD-FVIII-Gluc and inactive: 0.775 in assay [1].
The matching figures for `CNC[C@@H](O)c1ccc(O)c(O)c1` [L-Adrenaline (Epinephrine)]: inactive: 0.135 and inactive: -1.45.
